This experiment has as its target PARP4 (human (endogenous in iSAEC-K, A549 and patient-derived lung cell lines)) (UniProt Q9UKK3). In words: affinity purification with mass spectrometry; immunoprecipitation of endogenous PARP4 from SILAC-labelled extracts of iSAEC-K shControl cells, shPARP4 #1 cells as negative control; forward and reverse experiments; quantitative mass spectrometry.

The chains behind the UniProt entries cited, without tags or fusion partners.
UniProt Q9UKK3: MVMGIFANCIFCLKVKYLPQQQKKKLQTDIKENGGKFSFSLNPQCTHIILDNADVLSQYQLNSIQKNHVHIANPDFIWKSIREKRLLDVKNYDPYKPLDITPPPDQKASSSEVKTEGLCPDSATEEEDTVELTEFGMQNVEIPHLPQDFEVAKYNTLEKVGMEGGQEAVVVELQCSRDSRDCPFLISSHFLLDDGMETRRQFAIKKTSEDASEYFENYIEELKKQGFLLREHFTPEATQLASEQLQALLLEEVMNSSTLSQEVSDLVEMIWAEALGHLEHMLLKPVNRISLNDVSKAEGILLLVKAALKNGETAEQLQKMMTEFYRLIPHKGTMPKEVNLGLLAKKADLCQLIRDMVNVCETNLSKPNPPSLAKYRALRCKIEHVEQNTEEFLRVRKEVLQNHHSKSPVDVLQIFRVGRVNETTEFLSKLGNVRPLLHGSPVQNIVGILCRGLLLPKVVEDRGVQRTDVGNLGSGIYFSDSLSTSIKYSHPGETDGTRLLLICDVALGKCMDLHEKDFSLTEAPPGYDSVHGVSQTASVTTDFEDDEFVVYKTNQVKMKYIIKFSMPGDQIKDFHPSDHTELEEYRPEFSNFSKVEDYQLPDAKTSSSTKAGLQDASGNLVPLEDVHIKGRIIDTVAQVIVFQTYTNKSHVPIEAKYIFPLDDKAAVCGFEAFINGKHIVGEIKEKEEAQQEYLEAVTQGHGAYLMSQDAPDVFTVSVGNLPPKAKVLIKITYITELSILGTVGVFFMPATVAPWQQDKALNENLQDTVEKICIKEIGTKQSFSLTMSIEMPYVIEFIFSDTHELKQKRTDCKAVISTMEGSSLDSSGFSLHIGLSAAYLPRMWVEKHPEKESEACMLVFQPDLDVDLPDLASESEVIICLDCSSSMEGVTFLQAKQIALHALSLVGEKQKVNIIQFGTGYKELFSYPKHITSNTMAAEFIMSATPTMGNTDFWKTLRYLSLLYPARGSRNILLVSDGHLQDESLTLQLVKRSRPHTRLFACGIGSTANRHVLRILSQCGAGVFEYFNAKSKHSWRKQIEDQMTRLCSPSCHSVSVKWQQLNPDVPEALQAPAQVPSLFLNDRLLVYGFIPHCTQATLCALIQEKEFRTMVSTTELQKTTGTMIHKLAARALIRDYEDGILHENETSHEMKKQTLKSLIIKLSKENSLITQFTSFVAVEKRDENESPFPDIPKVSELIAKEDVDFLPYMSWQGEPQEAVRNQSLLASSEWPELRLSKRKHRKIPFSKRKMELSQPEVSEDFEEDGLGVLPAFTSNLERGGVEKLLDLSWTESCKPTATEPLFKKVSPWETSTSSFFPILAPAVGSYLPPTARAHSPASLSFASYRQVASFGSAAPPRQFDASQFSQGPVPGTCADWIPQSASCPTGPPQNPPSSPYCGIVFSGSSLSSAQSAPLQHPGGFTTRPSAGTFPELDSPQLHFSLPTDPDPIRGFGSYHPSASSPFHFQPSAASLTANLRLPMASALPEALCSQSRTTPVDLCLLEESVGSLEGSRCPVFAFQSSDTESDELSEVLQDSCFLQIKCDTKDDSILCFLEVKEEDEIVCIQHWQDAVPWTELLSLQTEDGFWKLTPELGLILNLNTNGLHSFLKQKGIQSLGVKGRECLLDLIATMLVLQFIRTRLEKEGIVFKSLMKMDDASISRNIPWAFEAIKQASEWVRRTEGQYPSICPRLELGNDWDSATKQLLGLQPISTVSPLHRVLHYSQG
UniProt Q14764: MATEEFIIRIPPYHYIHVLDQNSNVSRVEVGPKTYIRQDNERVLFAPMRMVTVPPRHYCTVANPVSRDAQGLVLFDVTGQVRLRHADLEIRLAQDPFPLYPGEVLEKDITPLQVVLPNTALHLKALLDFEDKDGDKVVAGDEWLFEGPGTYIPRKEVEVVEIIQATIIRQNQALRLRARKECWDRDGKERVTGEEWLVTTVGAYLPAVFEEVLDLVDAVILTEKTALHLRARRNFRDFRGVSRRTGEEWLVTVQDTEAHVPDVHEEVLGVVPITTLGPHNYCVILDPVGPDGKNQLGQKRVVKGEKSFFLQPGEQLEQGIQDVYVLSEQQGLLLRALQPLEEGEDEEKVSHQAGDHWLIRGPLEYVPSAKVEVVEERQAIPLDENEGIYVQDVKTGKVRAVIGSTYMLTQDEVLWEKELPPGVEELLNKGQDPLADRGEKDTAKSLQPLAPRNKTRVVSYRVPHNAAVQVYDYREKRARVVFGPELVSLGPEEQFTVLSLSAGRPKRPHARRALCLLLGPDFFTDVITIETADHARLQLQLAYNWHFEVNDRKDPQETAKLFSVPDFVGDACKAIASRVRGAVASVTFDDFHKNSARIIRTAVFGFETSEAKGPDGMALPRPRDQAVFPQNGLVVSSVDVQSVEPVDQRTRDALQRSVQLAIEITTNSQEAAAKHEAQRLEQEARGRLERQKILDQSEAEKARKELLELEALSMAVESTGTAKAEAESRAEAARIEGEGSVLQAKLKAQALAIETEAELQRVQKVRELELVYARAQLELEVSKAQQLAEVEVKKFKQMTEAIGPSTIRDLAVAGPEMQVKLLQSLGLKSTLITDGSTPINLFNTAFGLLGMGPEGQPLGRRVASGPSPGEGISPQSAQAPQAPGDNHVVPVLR

These are yes or no findings as the source states them, for the method shown. In cells and extracts the contact can be indirect. Here binding means that the protein was enriched with, or labelled near, the bait; the list need not be complete.

As to “major vault protein (MVP) (from UniProt Q14764 1-893)”, the binding entry is reported as “binds”.

The values above are taken from article PMC11265163.
